{"source": "patent US10975016B2", "about": "“Solvent compounds for use as glycol ether replacements” (TBF ENVIRONMENTAL TECHNOLOGY INC., priority 2017, dated 2021)", "experiment": "4.3% of coalescent in acrylic polymer Raycryl 1001: mixing and film properties", "details": "for Compatibility / Film Clarity / Film Flexibility, Softness / Film Gloss / Film Integrity: 4.3% of coalescent in Raycryl 1001; for Mixing Ease: 4.3% of coalescent in Raycryl 1001 (46% solid)"}
{"smiles": "CCCCOCCO", "note": "[Butyl Cellosolve]", "values": [{"measurement": "Compatibility", "value": "Compatible"}, {"measurement": "Film Clarity", "value": "Clear"}, {"measurement": "Film Flexibility, Softness", "value": "Brittle"}, {"measurement": "Film Gloss", "value": "Glossy"}, {"measurement": "Film Integrity", "value": "Cracked"}, {"measurement": "Mixing Ease", "value": "Easy"}]}
{"smiles": "CC(C)C(=O)OCC(C)(C)C(O)C(C)C", "note": "(stereo not drawn) [Texanol]", "values": [{"measurement": "Compatibility", "value": "Compatible"}, {"measurement": "Film Clarity", "value": "Clear"}, {"measurement": "Film Flexibility, Softness", "value": "Brittle"}, {"measurement": "Film Gloss", "value": "Glossy"}, {"measurement": "Film Integrity", "value": "Cracked"}, {"measurement": "Mixing Ease", "value": "Not Easy,"}]}
{"smiles": "CCCCOCCOC(=O)OCCOCCCC", "note": "[XBC4, bis(2-ButoxyEthyl Carbonate)]", "values": [{"measurement": "Compatibility", "value": "Compatible"}, {"measurement": "Film Clarity", "value": "Clear"}, {"measurement": "Film Flexibility, Softness", "value": "Flexible,"}, {"measurement": "Film Gloss", "value": "Glossy"}, {"measurement": "Film Integrity", "value": "Clear"}, {"measurement": "Mixing Ease", "value": "Not Easy,"}]}
